# Measurements reported in PubChem BioAssay AID1117269 (University of Michigan, 2014).
# Aim: 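Which kinase knockdowns increase BTR reporter light after TGF-beta stimulation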 (primary screen)
# System: human A549 lung cancer and 1833 breast cancer (MDA-MB-231-derived) cell lines carrying a stable BTR luciferase reporter
# Reagents: siRNA pool against human genes
# Time to read-out: 72 h after transfection, then 1 h TGF-beta before the read
# Treatment: TGF-beta 10 ng/mL added one hour before luciferin and read-out
# Detection: 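Live-cell BTR luciferase signal at 72 h after transfection and 1 h of TGF-beta at 10 ng/mL, fold versus scrambled siRNA, triplicate mean for each line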
# Reading the numbers: fold over scrambled siRNA, A549 and fold over scrambled siRNA, 1833: higher = more reporter light, weaker TGF-beta receptor signalling
# Active means: 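Hit in either line counts as active; per-line hits lie above an upper limit from quartiles of averaged log fold values, in plate and screen-wide analyses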
# Calls: active = hit in at least one line; inactive = hit in neither line
# The whole screen tested 714 reagents; shown is a part drawn at random. Over the whole deposit, 49 (6.9%) got an active call. 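Active means a hit in at least one line; per-line hit columns show which; some siRNA pools appear more than once.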 Not stated in the record: the amount of reagent.
Gene,"fold over scrambled siRNA, A549","fold over scrambled siRNA, 1833",hit in A549,hit in 1833,outcome
MKNK1,1.98,1.62,not a hit in A549,not a hit in 1833,inactive
TAF1,1.05,6.24,not a hit in A549,not a hit in 1833,inactive
RNASEL,3.57,5.91,not a hit in A549,not a hit in 1833,inactive
CAMK2D,3.71,7.12,not a hit in A549,not a hit in 1833,inactive
DYRK1A,2.72,2.48,not a hit in A549,not a hit in 1833,inactive
BRD2,2.11,8.2,not a hit in A549,not a hit in 1833,inactive
CDK18,1.96,4.73,not a hit in A549,not a hit in 1833,inactive
PANK2,0.939,1.79,not a hit in A549,not a hit in 1833,inactive
TEC,3.26,1.65,not a hit in A549,not a hit in 1833,inactive
TPK1,0.821,0.519,not a hit in A549,not a hit in 1833,inactive
NTRK3,2.2,3.39,not a hit in A549,not a hit in 1833,inactive
PAK3,4.16,3.22,not a hit in A549,not a hit in 1833,inactive
STYK1,1.15,1.75,not a hit in A549,not a hit in 1833,inactive
PFKFB3,0.804,1.47,not a hit in A549,not a hit in 1833,inactive
ULK4,1,1.4,not a hit in A549,not a hit in 1833,inactive
JAK1,4.01,3.67,not a hit in A549,not a hit in 1833,inactive
MATK,1.24,8.87,not a hit in A549,not a hit in 1833,inactive
MAP3K7,3.52,5.57,not a hit in A549,not a hit in 1833,inactive
GUK1,1.57,3.05,not a hit in A549,not a hit in 1833,inactive
CSNK1D,2.08,2.77,not a hit in A549,not a hit in 1833,inactive
AURKB,0.573,1.26,not a hit in A549,not a hit in 1833,inactive
NME3,3.62,6.73,not a hit in A549,not a hit in 1833,inactive
DLG2,1.06,0.63,not a hit in A549,not a hit in 1833,inactive
FLT4,0.885,5.73,not a hit in A549,not a hit in 1833,inactive
AK1,1.63,1.13,not a hit in A549,not a hit in 1833,inactive
CHKA,0.898,1.63,not a hit in A549,not a hit in 1833,inactive
CDKN1A,0.788,2.83,not a hit in A549,not a hit in 1833,inactive
DLG3,2.74,4.4,not a hit in A549,not a hit in 1833,inactive
INSR,2.7,7,not a hit in A549,not a hit in 1833,inactive
PRKCD,0.429,3.1,not a hit in A549,not a hit in 1833,inactive
IKBKG,2.46,0.741,not a hit in A549,not a hit in 1833,inactive
FLT3,1.11,1.76,not a hit in A549,not a hit in 1833,inactive
PIK3CA,1.46,1.6,not a hit in A549,not a hit in 1833,inactive
PRKCA,2.43,8.86,not a hit in A549,not a hit in 1833,inactive
FXN,2.49,31.3,not a hit in A549,hit in 1833,
PFKFB1,0.74,0.63,not a hit in A549,not a hit in 1833,inactive
IGF1R,2.1,0.429,not a hit in A549,not a hit in 1833,inactive
TTK,2.29,2.91,not a hit in A549,not a hit in 1833,inactive
PRPS1,1.08,2.36,not a hit in A549,not a hit in 1833,inactive
PDGFRL,1.32,2.33,not a hit in A549,not a hit in 1833,inactive
PHKG1,1.44,3.54,not a hit in A549,not a hit in 1833,inactive
TYRO3,2.07,2.86,not a hit in A549,not a hit in 1833,inactive
ATP23,1.19,5.43,not a hit in A549,not a hit in 1833,inactive
SCYL3,0.714,1.25,not a hit in A549,not a hit in 1833,inactive
PIM3,1.81,0.481,not a hit in A549,not a hit in 1833,inactive
PRKAA2,4.43,7.19,not a hit in A549,not a hit in 1833,inactive
NIM1K,1.8,2.93,not a hit in A549,not a hit in 1833,inactive
MINK1,3.52,6.13,not a hit in A549,not a hit in 1833,inactive
WNK2,2.24,2.34,not a hit in A549,not a hit in 1833,inactive
TRIB2,2.29,4.51,not a hit in A549,not a hit in 1833,inactive
NUAK1,0.627,2.26,not a hit in A549,not a hit in 1833,inactive
EPHA8,3.52,6.13,not a hit in A549,not a hit in 1833,inactive
BMPR1B,3.48,6.01,not a hit in A549,not a hit in 1833,inactive
LATS2,2.07,5.1,not a hit in A549,not a hit in 1833,inactive
PRKCSH,1.29,2.08,not a hit in A549,not a hit in 1833,inactive
CDKL2,1.29,1.81,not a hit in A549,not a hit in 1833,inactive
NRBP1,1.43,3.52,not a hit in A549,not a hit in 1833,inactive
